# Measurements as given in the supplement of paper PMC4635364.
# Structures can show the parent of a compound that is named as a salt. Some of the results follow. Repeats in this data set agree poorly, so a single value says little.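 Cells: ReNCell VM human fetal ventral-midbrain neural progenitors, differentiated mitogen-free. Blinded raters compared doublecortin-stained (early neurons) or tyrosine hydroxylase-stained (dopaminergic neurons) images with untreated wells, where 0 means no change. After repeats and both raters were averaged, compounds scoring 2 or above became hits for retesting.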
# How the values were obtained:
# ReNCell VM [1] = assay: neuronal differentiation score (DCX+ cell fraction vs untreated, manual image score) (score (-3 to 3)); higher = more neuronal differentiation; conditions: 2 uM, 2 weeks
# ReNCell VM [2] = assay: dopaminergic neuron differentiation score (TH+ cell fraction vs untreated, manual image score) (score (0 to 3)); higher = more TH+ dopaminergic neuron differentiation; conditions: 2 uM, 4 weeks, BDNF 10 ng/ml + GDNF 10 ng/ml
smiles,measurement,setting,value
NS(=O)(=O)c1cc(C2(O)NC(=O)c3ccccc32)ccc1Cl (centres undefined) [Chlorthalidone],neuronal differentiation score,ReNCell VM [1]; library: Prestwick,inactive: 0
same,dopaminergic neuron differentiation score,ReNCell VM [2]; library: Prestwick,inactive: 0
CNC(=O)[C@H]1O[C@@H](n2cnc3c(N)ncnc32)[C@H](O)[C@@H]1O [5'-N-Methyl carboxamidoadenosine],neuronal differentiation score,ReNCell VM [1]; library: LOPAC,inactive: -2
same,dopaminergic neuron differentiation score,ReNCell VM [2]; library: LOPAC,inactive: 0
COc1cccc2c1[C@@H]1CN(CCCCn3c(=O)[nH]c4c(sc5ncc(-c6ccccc6)nc54)c3=O)C[C@@H]1CO2 [Fiduxosin hydrochloride],neuronal differentiation score,ReNCell VM [1]; library: LOPAC,inactive: 0
same,dopaminergic neuron differentiation score,ReNCell VM [2]; library: LOPAC,inactive: 0
Cc1cc(O)c(C)c(O)c1C(=O)O,neuronal differentiation score,ReNCell VM [1]; library: Spectrum,inactive: 0
same,dopaminergic neuron differentiation score,ReNCell VM [2]; library: Spectrum,inactive: 1
CC1(c2ccccc2)OC(C(=O)O)=CC1=O (centres undefined) [Acifran],neuronal differentiation score,ReNCell VM [1]; library: Tocriscreen,inactive: 0
same,dopaminergic neuron differentiation score,ReNCell VM [2]; library: Tocriscreen,inactive: 0
CC(C)[C@H](CO)Nc1nc(Nc2ccc(C(=O)O)c(Cl)c2)c2ncn(C(C)C)c2n1 [Purvalanol B],neuronal differentiation score,ReNCell VM [1]; library: Tocriscreen,inactive: 0
same,dopaminergic neuron differentiation score,ReNCell VM [2]; library: Tocriscreen,inactive: 0
CN1C2CCCC1CC(NC(=O)c1nn(C)c3ccccc13)C2 (centres undefined) [Granisetron],neuronal differentiation score,ReNCell VM [1]; library: Prestwick,inactive: 0
same,dopaminergic neuron differentiation score,ReNCell VM [2]; library: Prestwick,inactive: 0
C=CCN1CCCC1CNC(=O)c1cc2nn[nH]c2cc1OC (centres undefined) [Alizapride HCl],neuronal differentiation score,ReNCell VM [1]; library: Prestwick,inactive: 0
same,dopaminergic neuron differentiation score,ReNCell VM [2]; library: Prestwick,inactive: 0
C=CC(C1=CC(=O)C(OC)=CC1=O)c1ccc(O)cc1 (centres undefined),neuronal differentiation score,ReNCell VM [1]; library: Spectrum,inactive: 0
same,dopaminergic neuron differentiation score,ReNCell VM [2]; library: Spectrum,inactive: 0
CN(C)S(=O)(=O)c1ccc2c(c1)/C(=C/c1cc3c([nH]1)CCCC3)C(=O)N2,neuronal differentiation score,ReNCell VM [1]; library: LOPAC,inactive: 0
same,dopaminergic neuron differentiation score,ReNCell VM [2]; library: LOPAC,inactive: 0
CCCCCCc1ccc(O)cc1O,neuronal differentiation score,ReNCell VM [1]; library: Spectrum,inactive: 0
same,dopaminergic neuron differentiation score,ReNCell VM [2]; library: Spectrum,inactive: 0
C=CC(=O)c1ccc2ccccc2c1,neuronal differentiation score,ReNCell VM [1]; library: Tocriscreen,inactive: 1
same,dopaminergic neuron differentiation score,ReNCell VM [2]; library: Tocriscreen,inactive: 0
CC12CCC(CC1)C(C)(C)O2,neuronal differentiation score,ReNCell VM [1]; library: Spectrum,inactive: 0
same,dopaminergic neuron differentiation score,ReNCell VM [2]; library: Spectrum,inactive: 0
CCNC(=O)[C@H]1O[C@@H](n2cnc3c(N)nc(NCCc4ccc(CCC(=O)O)cc4)nc32)[C@H](O)[C@@H]1O,neuronal differentiation score,ReNCell VM [1]; library: LOPAC,inactive: 0
same,dopaminergic neuron differentiation score,ReNCell VM [2]; library: LOPAC,inactive: 0
"O=c1[nH]c2cc(Cl)c(Cl)cc2[nH]c1=O [6,7-Dichloroquinoxaline-2,3-dione]",neuronal differentiation score,ReNCell VM [1]; library: LOPAC,inactive: 0
same,dopaminergic neuron differentiation score,ReNCell VM [2]; library: LOPAC,inactive: 1
CC(=C(CCO)SSCC1CCCO1)N(C=O)Cc1cnc(C)nc1N (stereo in doubt) [Fursultiamine Hydrochloride],neuronal differentiation score,ReNCell VM [1]; library: Prestwick,inactive: 0
same,dopaminergic neuron differentiation score,ReNCell VM [2]; library: Prestwick,inactive: 0
C[C@H](CCC(=O)O)[C@H]1CC[C@H]2[C@@H]3CC[C@@H]4C[C@H](O)CC[C@]4(C)[C@H]3CC[C@]12C [Lithocholic acid],neuronal differentiation score,ReNCell VM [1]; library: Prestwick,inactive: 0
same,dopaminergic neuron differentiation score,ReNCell VM [2]; library: Prestwick,inactive: 0
O=C(O)CN(CCN(CC(=O)O)CC(=O)O)CCN(CC(=O)O)CC(=O)O [Diethylenetriaminepentaacetic acid],neuronal differentiation score,ReNCell VM [1]; library: LOPAC,inactive: 0
same,dopaminergic neuron differentiation score,ReNCell VM [2]; library: LOPAC,inactive: 0
COc1cc(NS(=O)(=O)c2ccc(N)cc2)ncn1,neuronal differentiation score,ReNCell VM [1]; library: Spectrum,inactive: 0
same,dopaminergic neuron differentiation score,ReNCell VM [2]; library: Spectrum,inactive: 0
CN1C2CCCC1CC(NC(=O)c1nn(C)c3ccccc13)C2 (centres undefined),neuronal differentiation score,ReNCell VM [1]; library: Spectrum,inactive: 0
same,dopaminergic neuron differentiation score,ReNCell VM [2]; library: Spectrum,inactive: 0
CC(=O)SCC[N+](C)(C)C [Acetylthiocholine chloride],neuronal differentiation score,ReNCell VM [1]; library: LOPAC,inactive: 0
same,dopaminergic neuron differentiation score,ReNCell VM [2]; library: LOPAC,inactive: 0
CC(=O)S[C@@H]1CC2=CC(=O)CC[C@]2(C)[C@H]2CC[C@@]3(C)[C@@H](CC[C@@]34CCC(=O)O4)[C@H]12,neuronal differentiation score,ReNCell VM [1]; library: Spectrum,inactive: 0
same,dopaminergic neuron differentiation score,ReNCell VM [2]; library: Spectrum,inactive: 0
NS(=O)(=O)C#Cc1ccccc1 [Pifithrin->m],neuronal differentiation score,ReNCell VM [1]; library: Tocriscreen,inactive: 0
same,dopaminergic neuron differentiation score,ReNCell VM [2]; library: Tocriscreen,inactive: 0
CC1(C)S[C@@H]2[C@H](NC(=O)[C@H](N)c3ccccc3)C(=O)N2[C@H]1C(=O)OC1OC(=O)c2ccccc21 (some centres undefined) [Talampicillin hydrochloride],neuronal differentiation score,ReNCell VM [1]; library: Prestwick,inactive: 0
same,dopaminergic neuron differentiation score,ReNCell VM [2]; library: Prestwick,inactive: 0
CN1CCN2c3ccccc3Cc3ccccc3C2C1 (centres undefined),neuronal differentiation score,ReNCell VM [1]; library: Spectrum,inactive: 0
same,dopaminergic neuron differentiation score,ReNCell VM [2]; library: Spectrum,inactive: 0
Nc1ccc(S(N)(=O)=O)cc1 [Sulfanilamide],neuronal differentiation score,ReNCell VM [1]; library: Prestwick,inactive: 0
same,dopaminergic neuron differentiation score,ReNCell VM [2]; library: Prestwick,inactive: 0
O=C(O)CP(=O)(O)O [Phosphonoacetic acid],neuronal differentiation score,ReNCell VM [1]; library: LOPAC,inactive: 0
same,dopaminergic neuron differentiation score,ReNCell VM [2]; library: LOPAC,inactive: 0
COc1ccnc(C[S+]([O-])c2nc3cc(OC(F)F)ccc3[nH]2)c1OC (centres undefined),neuronal differentiation score,ReNCell VM [1]; library: Spectrum,inactive: 0
same,dopaminergic neuron differentiation score,ReNCell VM [2]; library: Spectrum,inactive: 0
CC(C)(C(=O)O)c1ccc(C(O)CCCN2CCC(C(O)(c3ccccc3)c3ccccc3)CC2)cc1 (centres undefined),neuronal differentiation score,ReNCell VM [1]; library: Spectrum,inactive: 1
same,dopaminergic neuron differentiation score,ReNCell VM [2]; library: Spectrum,inactive: 0
COc1cc(OC)c2c(=O)c(-c3ccc4c(c3)OCO4)coc2c1,neuronal differentiation score,ReNCell VM [1]; library: Spectrum,inactive: 0
same,dopaminergic neuron differentiation score,ReNCell VM [2]; library: Spectrum,inactive: 0
CC(C)(C(=O)c1cccnc1)c1cccnc1 [Metyrapone],neuronal differentiation score,ReNCell VM [1]; library: Prestwick,inactive: 0
same,dopaminergic neuron differentiation score,ReNCell VM [2]; library: Prestwick,inactive: 0
Oc1cc2c(c(Cl)c1O)CCNCC2c1ccccc1 (centres undefined),neuronal differentiation score,ReNCell VM [1]; library: Tocriscreen,inactive: 0
same,dopaminergic neuron differentiation score,ReNCell VM [2]; library: Tocriscreen,inactive: 0
Cc1cc2cc3c(C)cc(=O)oc3c(C)c2o1,neuronal differentiation score,ReNCell VM [1]; library: Spectrum,inactive: 0
same,dopaminergic neuron differentiation score,ReNCell VM [2]; library: Spectrum,inactive: 0
CO[C@@]1(NC(=O)C(C(=O)O)c2ccc(O)cc2)C(=O)N2C(C(=O)O)=C(CSc3nnnn3C)CO[C@@H]21 (some centres undefined),neuronal differentiation score,ReNCell VM [1]; library: Spectrum,inactive: 0
same,dopaminergic neuron differentiation score,ReNCell VM [2]; library: Spectrum,inactive: 0
CC(=O)Oc1ccccc1C(=O)Oc1ccccc1C(=O)O,neuronal differentiation score,ReNCell VM [1]; library: Spectrum,inactive: 0
same,dopaminergic neuron differentiation score,ReNCell VM [2]; library: Spectrum,inactive: 0
CCc1c2c(nc3ccc(OC(=O)N4CCC(N5CCCCC5)CC4)cc13)-c1cc3c(c(=O)n1C2)COC(=O)[C@]3(O)CC [Irinotecan hydrochloride trihydrate],neuronal differentiation score,ReNCell VM [1]; library: Prestwick,inactive: 0
same,dopaminergic neuron differentiation score,ReNCell VM [2]; library: Prestwick,inactive: 0
CN(C/C=C/c1ccccc1)Cc1cccc2ccccc12,neuronal differentiation score,ReNCell VM [1]; library: Spectrum,inactive: 0
same,dopaminergic neuron differentiation score,ReNCell VM [2]; library: Spectrum,inactive: 0

# Looked up one by one from above (5):
smiles,measurement,setting,value
COc1cc(OC)c2c(=O)c(-c3ccc4c(c3)OCO4)coc2c1,dopaminergic neuron differentiation score,ReNCell VM [2]; library: Spectrum,inactive: 0
CN(C)S(=O)(=O)c1ccc2c(c1)/C(=C/c1cc3c([nH]1)CCCC3)C(=O)N2,dopaminergic neuron differentiation score,ReNCell VM [2]; library: LOPAC,inactive: 0
"O=c1[nH]c2cc(Cl)c(Cl)cc2[nH]c1=O [6,7-Dichloroquinoxaline-2,3-dione]",dopaminergic neuron differentiation score,ReNCell VM [2]; library: LOPAC,inactive: 1
COc1cc(OC)c2c(=O)c(-c3ccc4c(c3)OCO4)coc2c1,neuronal differentiation score,ReNCell VM [1]; library: Spectrum,inactive: 0
CC(=C(CCO)SSCC1CCCO1)N(C=O)Cc1cnc(C)nc1N (stereo in doubt) [Fursultiamine Hydrochloride],dopaminergic neuron differentiation score,ReNCell VM [2]; library: Prestwick,inactive: 0
